These are yes or no findings as the source states them, for the method shown. Binding seen in cells or lysates may run through a third protein. Some entries that bind do so weakly or less than the wild type. Sequences can lack the tags named with a protein.

Sequences of proteins named here, by UniProt entry; tags and fusion partners are left off.
UniProt O00762: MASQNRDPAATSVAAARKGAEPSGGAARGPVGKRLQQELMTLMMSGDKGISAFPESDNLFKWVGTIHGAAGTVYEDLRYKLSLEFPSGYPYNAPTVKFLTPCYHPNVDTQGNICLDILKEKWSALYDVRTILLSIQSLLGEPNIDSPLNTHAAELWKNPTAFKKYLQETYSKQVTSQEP

The target in assay [1] is T1, human HA-UBE2J1 (human, UniProt Q9Y385 1-318).
T1 construct: E2 ubiquitin-conjugating enzyme UBE2J1, human, full-length open reading frame; also called pCAG-humanUBE2J1; source: HEK293 cells, transfected (pCAG1.1, Lipofectamine 3000), in lysate; not shown: HA, N-terminal, kept
T1 sequence (looked up): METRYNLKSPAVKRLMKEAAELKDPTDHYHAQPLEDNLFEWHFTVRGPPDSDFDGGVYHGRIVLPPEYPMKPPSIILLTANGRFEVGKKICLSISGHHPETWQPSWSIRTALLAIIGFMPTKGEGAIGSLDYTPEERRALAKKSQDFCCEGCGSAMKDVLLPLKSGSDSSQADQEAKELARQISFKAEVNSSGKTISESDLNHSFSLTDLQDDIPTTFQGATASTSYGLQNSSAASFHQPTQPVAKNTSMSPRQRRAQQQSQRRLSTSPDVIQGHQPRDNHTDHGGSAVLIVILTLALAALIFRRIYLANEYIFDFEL
Description: co-IP; HEK293 cells co-transfected with FLAG-tagged E3 and HA-tagged E2; lysed by sonication in Pierce IP buffer (25 mM Tris-HCl pH 7.4, 150 mM NaCl, 1 mM EDTA, 1% NP-40, 5% glycerol); anti-HA magnetic beads, 4 C, 1 h; washed with IP buffer with 2 mM DTT; immunoblot with anti-FLAG; band intensities by ImageJ (IP lane to input lane).

The target in assay [2] is human HA-UBE2C (human) (UniProt O00762). The assay is described as above.

B1: human RNF151-FLAG (RING finger protein 151) (enzyme, UniProt Q2KHN1 1-245)
chain: MGGGYDLNLFASPPDSNFVCSVCHGVLKRPARLPCSHIFCKKCILRWLARQKTCPCCRKEVKRKKVVHMNKLRKTIGRLEVKCKNADAGCIVTCPLAHRKGHQDSCPFELTACPNEGCTSQVPRGTLAEHRQHCQQGSQQRCPLGCGATLDPAERARHNCYRELHNAWSVRQERRRPLLLSLLRRVRWLDQATSVVRRELAELSNFLEEDTALLEGAPQEEAEAAPEGNVGAEVVGEPRANIPCK
As for B1, the binding result in assay [1] was “no binding”.

B2: human RNF133-FLAG (RING finger protein 133) (enzyme, UniProt Q8WVZ7 1-376, looked up)
chain: MHLLKVGTWRNNTASSWLMKFSVLWLVSQNCCRASVVWMAYMNISFHVGNHVLSELGETGVFGRSSTLKRVAGVIVPPEGKIQNACNPNTIFSRSKYSETWLALIERGGCTFTQKIKVATEKGASGVIIYNVPGTGNQVFPMFHQAFEDVVVVMIGNLKGTEIFHLIKKGVLITAVVEVGRKHIIWMNHYLVSFVIVTTATLAYFIFYHIHRLCLARIQNRRWQRLTTDLQNTFGQLQLRVVKEGDEEINPNGDSCVICFERYKPNDIVRILTCKHFFHKNCIDPWILPHGTCPICKCDILKVLGIQVVVENGTEPLQVLMSNELPETLSPSEEETNNEVSPAGTSDKVIHVEENPTSQNNDIQPHSVVEDVHPSP
notes: also called human RNF133-WT; RNF133 wild-type; source: HEK293 cells, transfected (pCAG1.1, Lipofectamine 3000), in lysate; not shown: FLAG, C-terminal, kept
For the molecule B2, the binding entry in assay [2] is on record as “binds”.

Values taken from publication PMC9277888, “The testis-specific E3 ubiquitin ligase RNF133 is required for fecundity in mice” (BMC Biology, 2022).
